We go through one molecule from publication PMC6696985.

The target in test [1] is Mitofusin2 (mouse (endogenous in cerebral cortex and hippocampus)) (UniProt Q80U63). Nature of the test: native gel or EMSA; BN-PAGE of crude mitochondria from cerebral cortex and hippocampus of 8-wk-old WT or MITOL KO (eKO) mice, solubilized with 0.25% DDM or 0.625% digitonin, 20 mM NaCl, 50 mM imidazole pH 7.0; immunoblot with anti-Mfn2. (A gel shift assay detects complexes by their altered migration in electrophoresis.)

The target is the same in test [2]. Briefly: sucrose-density gradient centrifugation; mitochondria isolated from cerebral cortex and hippocampus of WT or eKO mice separated by sucrose-density gradient centrifugation; each fraction immunoblotted with anti-Mfn2; method as in Sugiura et al, 2013. A general note: In western blotting, separated proteins are transferred to a membrane and probed.

Results are given in words; binding and its absence hold for the method and conditions named. Some binding calls cover weakened binding; strength is not graded here. Sequences can lack the tags named with a protein.

B1: Mitofusin2 (protein, UniProt Q80U63 1-757)
chain: MSLLFSRCNSIVTVKKDKRHMAEVNASPLKHFVTAKKKINGIFEQLGAYIQESASFLEDTHRNTELDPVTTEEQVLDVKGYLSKVRGISEVLARRHMKVAFFGRTSNGKSTVINAMLWDKVLPSGIGHTTNCFLRVGGTDGHEAFLLTEGSEEKKSVKTVNQLAHALHQDEQLHAGSMVSVMWPNSKCPLLKDDLVLMDSPGIDVTTELDSWIDKFCLDADVFVLVANSESTLMQTEKQFFHKVSERLSRPNIFILNNRWDASASEPEYMEEVRRQHMERCTSFLVDELGVVDRAQAGDRIFFVSAKEVLSARVQKAQGMPEGGGALAEGFQVRMFEFQNFERQFEECISQSAVKTKFEQHTVRAKQIAEAVRLIMDSLHIAAQEQRVYCLEMREERQDRLRFIDKQLELLAQDYKLRIKQITEEVERQVSTAMAEEIRRLSVLVDEYQMDFHPSPVVLKVYKNELHRHIEEGLGRNLSDRCSTAIASSLQTMQQDMIDGLKPLLPVSMRNQIDMLVPRQCFSLSYDLNCDKLCADFQEDIEFHFSLGWTMLVNRFLGPKNSRRALLGYSDQVQRPLPLTPANPSMPPLPQSSLTQEELMVSMVTGLASLTSRTSMGILVVGGVVWKAVGWRLIALSFGLYGLLYVYERLTWTTKAKERAFKRQFVEYASEKLQLIISYTGSNCSHQVQQELSGTFAHLCQQVDITRDNLEQEIAAMNKKVEALDSLQSRAKLLRNKAGWLDSELNMFTHQYLQPSR
In the case of B1, the binding entry in test [1] and in test [2] was “binds” each time.
